Source: publication doi:10.1101/2022.06.03.494746
These are yes or no findings as the source states them, for the method shown. Binding seen in cells or lysates may run through a third protein. A result given as binding can be weak or reduced; the word gives no strength. For some assays here: Sequences can lack the tags named with a protein. Blank lines part the entries; values can stand above or below the binder they belong to.

Columns and labels:
[1] = biological target: HF-mScarlet-DCP1 (Arabidopsis); assay: FRET or BRET
[2] = biological target: HF-mScarlet-DCP1 (Arabidopsis); assay: proximity ligation
cYFP-DCP1 (Arabidopsis) = assay: split reporter
DCP1-GFP (Arabidopsis) [3] = assay: FRET or BRET
DCP1-GFP (Arabidopsis) [4] = assay: FRET or BRET; remark: listed apart in the source
[5] = biological target: DCP1^S237A-GFP (Arabidopsis); assay: FRET or BRET
DCP1-GFP (Arabidopsis) [6] = assay: proximity ligation

B1: PAT1-GFP (protein, UniProt Q0WPK4 1-793)
chain: MDAFGIGSSLNQAPVTQDLKKFGDNSTGNTMFDASQYAFFGNDVVEEVELGGLEEEDEILSFTGIAEDFSFDKEEVGDSRLLSDVDDLASTFSKLNREPDVYSNTGPITDRRSSQNSLAAEWTHGEELPNWYGRQILDSDAIKDDKVWSAQPFSSLDRVEQRIPDRTKLYPEPQRQLHQDHNQQQFSSEPILVPKSSFVSYPPPGSISPDQRLGHPNIPYQSGGPQMGSPNFSPFPNLQPQLPSMHHGSPQHTGNRPQFRPALPLNNLPPAQWMNRQNMHPGDSSGIMNNAMLQQPPHQNGLMPPQMQGSQNRLPHPMQPPLGHMPGMQPQLFNSHLSRSSSSGNYDGMLGFGDLREVRPGSGHGNRQNVRFPQQGFDAGVQRRYPFRSKYMSAGEIENILRMQLVATHSNDPYVDDYYHQACLAKKSAGAKLKHHFCPNHLRDLQQRARSNNEPHAFLQVEALGRVPFSSIRRPRPLLEVDPPNSAKFGNAEHKPTDKPLDQEPMLAARVYIEDGLCLLLEVDDIDRFLEFNQLQDGGHQLKQRRQALLQSLAVSLQLGDPLAKNGQSQSLDDFLFLRVISLPKGRKLLIRYLQLIFPGSDLMRIVCMAIFRHLRSLFGVLSSDPDIIKTTNKLATVINLCIQNMELGPVSTCLAAVSCSSEQAPLRPLGSPVGDGASTVLKSILDRASELIRANNFNNAGIALWRASFNEFFNMLMRYCISKYDSIMQSLQLPPHFATEISEEAAKAIVREMPIELLRSSFPHIDEQQKRILMEFLKRSMLGSQKTEPVLS
binding [1]: binds weakly | binding [2]: binds

B2: FLXL1 (BiFC construct) (protein, UniProt Q93V84 1-331)
chain: MSGRNRGPPPPSMKGGSYSGLQAPVHQPPFVRGLGGGPVPPPPHPSMIDDSREPQFRVDARGLPPQFSILEDRLAAQNQDVQGLLADNQRLAATHVALKQELEVAQHELQRIMHYIDSLRAEEEIMMREMYDKSMRSEMELREVDAMRAEIQKIRADIKEFTSGRQELTSQVHLMTQDLARLTADLQQIPTLTAEIENTKQELQRARAAIDYEKKGYAENYEHGKIMEHKLVAMARELEKLRAEIANSETSAYANGPVGNPGGVAYGGGYGNPEAGYPVNPYQPNYTMNPAQTGVVGYYPPPYGPQAAWAGGYDPQQQQQQQPPPQGQGHR
binding (cYFP-DCP1 (Arabidopsis)): binds weakly

B5: BRK1-mCherry (protein, UniProt Q94JY4 1-85)
chain: MAKAGGITNAVNVGIAVQADWENREFISHISLNVRRLFEFLVQFESTTKSKLASLNEKLDLLERRLEMLEVQVSTATANPSLFAT
binding (DCP1-GFP (Arabidopsis) [3]): binds

B6: BRK1-YFP (protein, UniProt Q94JY4 1-85)
chain: B5 chain
binding [2]: binds

B7: ECT4 (BiFC construct) (protein, UniProt A0A1P8AS03 1-605)
chain: MSTVAPPADQAADVLKKLSLDSKSRTLEIPEPTKKTGVYQYGAMDSNGQVPSFDRSLSPMLPSDALDPSVFYVPNVYQQPYYYGYGSDYTGYTNSESVDMTSGAYGENASLVYPQGYGYAAFPYSPATSPAPQLGGDGQLYGAQQYQYPFPLTASSGPFASSVPASTQSKLSTNKAANSASAGIPKGMNGSAPVKPLNQSALYGNSALGGGLAAGYQDPRYSYDGFYTPVSWHDGSNFSDVQRSVSGSGVASSYSKANNNVPATRNQNSSSNSHYTSMYQPASMTGYAAQGYYDRVSPNKSYGQYGSTVRSGMGYGSSGYGSRTNERGWLNTDNKYRSRGRGNSYFYGNENIDGLNELNRGPRAKGTKATEEVSSEEVKKQTFDESNTEETVTCVLPDREECNRDDFPVEYKDAKFFIIKSYSEDDVHKSIKYNVWASTPNGNKKLDAAYQEAQQKSSGCPVFLFFSVNASGQFIGLAEMKGPVDFNKNIEYWQQDKWTGSFPLKWHILKDVPNSLLKHITLEYNENKPVTNSRDTQEVKLEQGLKVVKIFKEHNSKTCILDDFSFYEARQKTILEKKAKQQQSQKQVWEGKTNDEKPGTVDSTM
binding (cYFP-DCP1 (Arabidopsis)): binds

B9: MLN51 (BiFC construct) (protein, UniProt Q93ZJ9 1-605)
chain: MAPDGVEDSDYESDPDELNRSLATRRREASDDDEDDEEADDHDKLRAAIQIHSDEHSGVVVVDSDDNEGLHIEDSYGDDDDEEEDGDYGQVDDHVEYIADNNDKTIVAGNGTDDSAATDLVDGEEQKKKEPFAVPTAGAFYMHDDRFQELDAASNRRMRGGRRLWQSRDERKWGHDKFEEMNTQKQQYDRRTSRGRGRGRGQGRGQDRGQSRGNNSKEFTGNGHQNQFPKAVTRGRGARRYEVALRNGNQAPSVQTKQSQNSSVEVSHVDLGRPPTETATLETEAIQAKKNVFASSLNSASPPFYPSRSNNNLAQKDVQAGMGRLHINENPNPTGKKFGNTKSSSLWGRTAQTTSHGRGVPPHGQVLYQQSPNQGDKVSSPMQIRGMPKGTDQSCTQLPGQVFNQHSAVISLLPSSPPKTGSSENPYLSGEIESAVETGALVAKGKGSLQPSGRGSFMYGGTQFMGPAGMAAGHGNPNFPAFLPVMQFGGQHGGVPTFGMALPGYFQPEHGTGNPEMTWLPILAGPGALGGSYCPPYTVLDGSYQADKPGLPSSAGSSSQENSSNNPNDEEPMERPEVTNNGNSQRSNSNPNKQPRRYSEMSFSK
binding (cYFP-DCP1 (Arabidopsis)): binds

Results, then the binder that gave them:

binding (cYFP-DCP1 (Arabidopsis)): binds
B3: VAP27-1 (BiFC construct) (protein, UniProt Q8VZ95 1-256)
chain: MSNIDLIGMSNRDLIGMSNSELLTVEPLDLQFPFELKKQISCSLYLTNKTDNNVAFKVKTTNPKKYCVRPNTGVVLPRSTCEVLVTMQAQKEAPSDMQCKDKFLLQGVIASPGVTAKEVTPEMFSKEAGHRVEETKLRVTYVAPPRPPSPVHEGSEEGSSPRASVSDNGHGSEFSFERFIVDNKAGHQENTSEARALITKLTEEKQSAIQLNNRLQRELDQLRRESKKSQSGGIPFMYVLLVGLIGLILGYIMKRT

binding (DCP1-GFP (Arabidopsis) [3]): binds | binding (DCP1-GFP (Arabidopsis) [4]): binds | binding [5]: binds | binding (DCP1-GFP (Arabidopsis) [6]): binds
B4: SCAR2-mCherry (protein, UniProt Q5XPJ9 1-1399)
chain: MPLTRYQSRNEYGLADPDLYQAADKDDPEALLEGVAMAGLVGILRQLGDLAEFAAEMFHDLHEEVMATASRSHGLMARVQQLEAEFPSIEKALLCQTDHSPFFSNKGVEWHPNLQLEQSVVTSGDLPRCVMDSYEECRGPPRLFLLDKFDISGAGACLKRYTDPSFVRLETSSYEESWDDIQREKKSQKAKRRASQWRNGGTPENALSSHAKLHELFLEEHLEAHHSDPARVVKLKTRKLDGCSLISKSGESYMEKFVQTRVDSKISYEIITQNPGLLTWNMDSARDVVTDIPEISMVGAMDKSHGGSRAEVSFPSEQENVANVNMNGGFIEKDIETVPESTYNEVRGTTITQDSQTVLNGKPGFFQQRSYSEDLTSEADNYVDAPATMESETETDDECRPKSRSDTLKDGNHHIYSDAVEERMEDPPQFSFSHSNGNTPVSENGRSSFGKKSTSYSYSDTASISIDDQSDGEKLSGCLPSTSSFKSELVDSMSHVTPEANKVSHDLNVQESVSSSNVDGQTSLSSNGTCSSPRPVSQNDQSCSLTVQSLASEVVETSPELVRLDLMKGGNDGRKVDPFDSSKSCASFDAKNSDLPSETSSISSTSEGSRCDSTIEKNCMVASNLVNSGTSPQAFVDSQTGKQLPIADTDFETNSIVACSEVLANSGSDPEERDGRCLTGKLVPCSAGVGMEVSPDTPSKVCGPSSADGIHLKDTLDDETDCVSVTNVVVDVDSKNSVADVGSQSSVADIDSQSSVAEISDEHSCAFGNTADVSVSESHEDTLENGMSVPSDFNSGVEKLAGDASPTCSKCDDHISHEGFHDLSGLDNATTDIVPNVELDVSDNDNDTSSGGVNHAVSLSSTRGKGSLPWISTNTYQSSSDAGEIFHDTVVESDGTLLEDNNPESEIKMHKSPLEVSSEGLSTEPDNKDVESIESTSPKPSLDQRNRDTETKSPGESILDDNCIDSTQVYNLNLLESEAIDQAVREQTSYASHEVADEELLQSNVFRGLEFEPQSAGLEFAPQSAGIELNRPKQELNLDPTFPSFGFIPETIPPNPEDMPPLPPMQWLIGKVPHSFPTFMGESVETSSSALSAAPPIGSSLNVQIGSPPSELSVSLGSDESERLPGGFVHNASEKPLQSSIQFPTMSTDLNSQYDSSELPTIPYQECIEDFGSEENNLLADHAAQNHELVYSQASSLQLPQVKHEDFKDDADVHESQSSSDDHHCPETKSLTPTQSTKVEDKGHSVPDASNAETAESSNTSVQKINPVSVGDAMWPVSCFSVAPTLDTYKTEVVPTVRLPRPRSPLVDAVAAHDRRKMKKVSEMVHPPIKSKQDDKDSLLAQIRNKSVNLKPAVTTRPSIQTGPRTDLRVAAILEKANTIRMAMAGSDEDEDSDSWSDS

binding [2]: no binding
B8: SOK3-YFP (protein, UniProt Q8GYT8 1-540)
chain: MEARMKKYSREVSPERAKVWTEKSPKYHQKIKKVQIVYYLSKNRQLEHPHFMEVLISSPNGLYLRDVIERLNVLRGRGMASMYSWSSKRSYRNGFVWHDLSEDDLILPANGNEYVLKGSELFDESNSDHFSPIVNLATQNMKQIVVEPPSSRSMDDSSSSSSMNNGKGTNKHSHEDDELSPPALRSVSSSGVSPDSRDAKNSSSWCLAEYKVYKSEGLADASTQTDETVSGRSKTPIETFSRGVSTDEDVSSEPETSENNLVSEASCAGKERESAEISRNSVSPPFSNSASSLGGKTDTLESLIRADVSKMNSFRILEQEDVRMPAIPRLRASNMLMQLISCGSISVKDNNFGLVPTYKPKFGHSKFPSPFFSSSFMMGDLDRLSETPSLMGLRMEEKEYFSGSLVETKLQKKDAADSNASLKRSSSYNGDRASNQMGVAENGDSKPDSSKNNPSSRKASSILGKQQPLVSEKRRDSSEDTTKNIPCTTKTHDACSKRITESLRKPDSFREDEERVIKIDERLASGARVRIESKVPSEEP

binding [2]: no binding
B10: PIN7-GFP (protein, UniProt Q940Y5 1-619)
chain: MITWHDLYTVLTAVIPLYVAMILAYGSVRWWKIFSPDQCSGINRFVAIFAVPLLSFHFISSNNPYAMNLRFIAADTLQKLIMLTLLIIWANFTRSGSLEWSITIFSLSTLPNTLVMGIPLLIAMYGEYSGSLMVQIVVLQCIIWYTLLLFLFEYRGAKILIMEQFPETGASIVSFKVESDVVSLDGHDFLETDAQIGDDGKLHVTVRKSNASRRSFYGGGGTNMTPRPSNLTGAEIYSLNTTPRGSNFNHSDFYSMMGFPGGRLSNFGPADMYSVQSSRGPTPRPSNFEESCAMASSPRFGYYPGGAPGSYPAPNPEFSTGNKTGSKAPKENHHHVGKSNSNDAKELHMFVWGSNGSPVSDRAGLQVDNGANEQVGKSDQGGAKEIRMLISDHTQNGENKAGPMNGDYGGEEESERVKEVPNGLHKLRCNSTAELNPKEAIETGETVPVKHMPPASVMTRLILIMVWRKLIRNPNTYSSLIGLIWALVAFRWDVAMPKIIQQSISILSDAGLGMAMFSLGLFMALQPKLIACGNSTATFAMAVRFFTGPAVMAVAAMAIGLRGDLLRVAIVQAALPQGIVPFVFAKEYNVHPAILSTGVIFGMLIALPITLVYYILLGL
